Data as given in PubChem BioAssay AID504772 (Drosophila RNAi Screening Center, 2011)
Aim: 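Fly genes whose silencing changes Wnt reporter output triggered by active LRP6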 (primary screen). Cell system: Drosophila clone 8 cells. Knock-down reagent: long dsRNA against Drosophila genes. Duration: four days. Conditions: pathway switched on by co-transfected constitutively active LRP6 lacking its extracellular part (DeltaNLRP6). Detection: 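Light from a beta-catenin-dependent firefly luciferase reporter (dTF12) relative to co-transfected Renilla luciferase, given as up or down, after four days with Wnt signalling driven by truncated active LRP6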. Call rule: 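a gene is picked when its silencing raises Wnt reporter signal by twofold or more and a human counterpart of the fly gene is known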. Meaning of the calls: active = picked as conserved enhancer hit; inactive = not picked.
This is not the whole library: the list holds selected reagents. 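Only primary screen hits listed, as up or down without numbers; fold changes behind calls not deposited; all reporter-lowering hits marked not picked.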 A plus sign joins genes that one reagent is predicted to hit. The record does not give: the amount of reagent, the dose of the treatment.

How did the screen score CG6686 [DRSC02979]?
reporter change after knockdown: reporter signal went up; call: active

For Xrp1 [DRSC15282], what was measured?
reporter change after knockdown: reporter signal went down; call: inactive

What is on record for emb (embargoed) [DRSC03528]?
reporter change after knockdown: reporter signal went up; call: inactive

Which result is listed for gpp (grappa) [DRSC12515]?
reporter change after knockdown: reporter signal went down; call: inactive

What is on record for Rnf146 (Ring finger protein 146) [DRSC11045]?
reporter change after knockdown: reporter signal went up; call: inactive

Which result is listed for SkpB (SKP1-related B) [DRSC07683]?
reporter change after knockdown: reporter signal went up; call: inactive

How did the screen score Tlk (Tousled-like kinase) [DRSC17835]?
reporter change after knockdown: reporter signal went down; call: inactive

For Chd3 [DRSC11114], what was measured?
reporter change after knockdown: reporter signal went up; call: inactive

What did the screen give for CG31917 + Tfb5 [DRSC02362]?
reporter change after knockdown: reporter signal went up; call: inactive

How did the screen score CG31917 + Tfb5 [DRSC02363]?
reporter change after knockdown: reporter signal went up; call: inactive

With ec (echinus) [DRSC18658], what was measured?
reporter change after knockdown: reporter signal went up; call: inactive

How did the screen score CG14454 [DRSC11711]?
reporter change after knockdown: reporter signal went up; call: inactive

For Nup154 (Nucleoporin 154kD) [DRSC03384], what was measured?
reporter change after knockdown: reporter signal went up; call: inactive

With vig (vasa intronic gene) [DRSC03631], what does the deposit list?
reporter change after knockdown: reporter signal went up; call: inactive

Which result is listed for mask (multiple ankyrin repeats single KH domain) [DRSC15370]?
reporter change after knockdown: reporter signal went down; call: inactive

Which result is listed for Tpc1 [DRSC15614]?
reporter change after knockdown: reporter signal went down; call: inactive

Which result is listed for zfh1 (Zn finger homeodomain 1) [DRSC17098]?
reporter change after knockdown: reporter signal went down; call: inactive

With cic (capicua) [DRSC16918], what was measured?
reporter change after knockdown: reporter signal went down; call: inactive

With Rga (Regena) [DRSC12364], what does the deposit list?
reporter change after knockdown: reporter signal went up; call: inactive

What is on record for ct (cut) [DRSC18757]?
reporter change after knockdown: reporter signal went down; call: inactive

What is on record for Prp8 (pre-mRNA processing factor 8) [DRSC07293]?
reporter change after knockdown: reporter signal went up; call: inactive

With CoRest [DRSC19881], what does the deposit list?
reporter change after knockdown: reporter signal went down; call: inactive

What did the screen give for CG31058 (retired record) [DRSC15840]?
reporter change after knockdown: reporter signal went down; call: inactive

With CG12071 [DRSC14471], how do the results read?
reporter change after knockdown: reporter signal went down; call: inactive

With apt (apontic) [DRSC04671], what does the deposit list?
reporter change after knockdown: reporter signal went down; call: inactive

For eRF1 (eukaryotic translation release factor 1) [DRSC11779], what does the deposit list?
reporter change after knockdown: reporter signal went down; call: inactive

Which result is listed for CG13711 [DRSC08320]?
reporter change after knockdown: reporter signal went down; call: inactive

Which result is listed for CG30460 [DRSC06560]?
reporter change after knockdown: reporter signal went down; call: inactive

How did the screen score Nup62 (Nucleoporin 62kD) [DRSC06970]?
reporter change after knockdown: reporter signal went up; call: inactive

How did the screen score CG32985 [DRSC02634]?
reporter change after knockdown: reporter signal went up; call: inactive

With Top1 (Topoisomerase 1) [DRSC20295], what was measured?
reporter change after knockdown: reporter signal went up; call: inactive

What is on record for B-H2 (BarH2) [DRSC19335]?
reporter change after knockdown: reporter signal went down; call: inactive

With Hmgcr (HMG Coenzyme A reductase) [DRSC16704], how do the results read?
reporter change after knockdown: reporter signal went up; call: inactive

For L (Lobe) [DRSC06666], what does the deposit list?
reporter change after knockdown: reporter signal went down; call: inactive

With lgs (legless) [DRSC17152], how do the results read?
reporter change after knockdown: reporter signal went down; call: inactive

For CG13675 [DRSC10034], what was measured?
reporter change after knockdown: reporter signal went down; call: inactive

What is on record for CCHa1 (CCHamide-1) [DRSC14821]?
reporter change after knockdown: reporter signal went down; call: inactive

For Tpst (Tyrosylprotein sulfotransferase) [DRSC19724], what was measured?
reporter change after knockdown: reporter signal went down; call: inactive

For SF2 (Splicing factor 2) [DRSC16845], what does the deposit list?
reporter change after knockdown: reporter signal went down; call: inactive

With Arms (Ankyrin repeat-rich membrane spanning) [DRSC04256], how do the results read?
reporter change after knockdown: reporter signal went down; call: inactive

How did the screen score Gprk2 (G protein-coupled receptor kinase 2) [DRSC16682]?
reporter change after knockdown: reporter signal went down; call: inactive

What is on record for PNUTS (Phosphatase 1 nuclear targeting subunit) [DRSC00638]?
reporter change after knockdown: reporter signal went down; call: inactive

What did the screen give for CG31368 [DRSC14949]?
reporter change after knockdown: reporter signal went up; call: inactive

How did the screen score MED15 (Mediator complex subunit 15) [DRSC00267]?
reporter change after knockdown: reporter signal went down; call: inactive

With MESR4 (Misexpression suppressor of ras 4) [DRSC06901], what was measured?
reporter change after knockdown: reporter signal went up; call: inactive

What did the screen give for msl-2 (male-specific lethal 2) [DRSC00829]?
reporter change after knockdown: reporter signal went up; call: inactive

For Mfap1 (Microfibril-associated protein 1) [DRSC08154], how do the results read?
reporter change after knockdown: reporter signal went up; call: active

2 neighbouring entries already listed, quoted:
CG14454 [DRSC11711] | reporter change after knockdown: reporter signal went up; call: inactive
Nup154 (Nucleoporin 154kD) [DRSC03384] | reporter change after knockdown: reporter signal went up; call: inactive
